The supplement of paper PMC10032668
This is one part of the list. Only hits are listed; about a third recur on repeated control peptides.

By UniProt entry, the sequences of proteins in these tests, tags left out.
FLNA, P21333, UniProt P21333, whole entry: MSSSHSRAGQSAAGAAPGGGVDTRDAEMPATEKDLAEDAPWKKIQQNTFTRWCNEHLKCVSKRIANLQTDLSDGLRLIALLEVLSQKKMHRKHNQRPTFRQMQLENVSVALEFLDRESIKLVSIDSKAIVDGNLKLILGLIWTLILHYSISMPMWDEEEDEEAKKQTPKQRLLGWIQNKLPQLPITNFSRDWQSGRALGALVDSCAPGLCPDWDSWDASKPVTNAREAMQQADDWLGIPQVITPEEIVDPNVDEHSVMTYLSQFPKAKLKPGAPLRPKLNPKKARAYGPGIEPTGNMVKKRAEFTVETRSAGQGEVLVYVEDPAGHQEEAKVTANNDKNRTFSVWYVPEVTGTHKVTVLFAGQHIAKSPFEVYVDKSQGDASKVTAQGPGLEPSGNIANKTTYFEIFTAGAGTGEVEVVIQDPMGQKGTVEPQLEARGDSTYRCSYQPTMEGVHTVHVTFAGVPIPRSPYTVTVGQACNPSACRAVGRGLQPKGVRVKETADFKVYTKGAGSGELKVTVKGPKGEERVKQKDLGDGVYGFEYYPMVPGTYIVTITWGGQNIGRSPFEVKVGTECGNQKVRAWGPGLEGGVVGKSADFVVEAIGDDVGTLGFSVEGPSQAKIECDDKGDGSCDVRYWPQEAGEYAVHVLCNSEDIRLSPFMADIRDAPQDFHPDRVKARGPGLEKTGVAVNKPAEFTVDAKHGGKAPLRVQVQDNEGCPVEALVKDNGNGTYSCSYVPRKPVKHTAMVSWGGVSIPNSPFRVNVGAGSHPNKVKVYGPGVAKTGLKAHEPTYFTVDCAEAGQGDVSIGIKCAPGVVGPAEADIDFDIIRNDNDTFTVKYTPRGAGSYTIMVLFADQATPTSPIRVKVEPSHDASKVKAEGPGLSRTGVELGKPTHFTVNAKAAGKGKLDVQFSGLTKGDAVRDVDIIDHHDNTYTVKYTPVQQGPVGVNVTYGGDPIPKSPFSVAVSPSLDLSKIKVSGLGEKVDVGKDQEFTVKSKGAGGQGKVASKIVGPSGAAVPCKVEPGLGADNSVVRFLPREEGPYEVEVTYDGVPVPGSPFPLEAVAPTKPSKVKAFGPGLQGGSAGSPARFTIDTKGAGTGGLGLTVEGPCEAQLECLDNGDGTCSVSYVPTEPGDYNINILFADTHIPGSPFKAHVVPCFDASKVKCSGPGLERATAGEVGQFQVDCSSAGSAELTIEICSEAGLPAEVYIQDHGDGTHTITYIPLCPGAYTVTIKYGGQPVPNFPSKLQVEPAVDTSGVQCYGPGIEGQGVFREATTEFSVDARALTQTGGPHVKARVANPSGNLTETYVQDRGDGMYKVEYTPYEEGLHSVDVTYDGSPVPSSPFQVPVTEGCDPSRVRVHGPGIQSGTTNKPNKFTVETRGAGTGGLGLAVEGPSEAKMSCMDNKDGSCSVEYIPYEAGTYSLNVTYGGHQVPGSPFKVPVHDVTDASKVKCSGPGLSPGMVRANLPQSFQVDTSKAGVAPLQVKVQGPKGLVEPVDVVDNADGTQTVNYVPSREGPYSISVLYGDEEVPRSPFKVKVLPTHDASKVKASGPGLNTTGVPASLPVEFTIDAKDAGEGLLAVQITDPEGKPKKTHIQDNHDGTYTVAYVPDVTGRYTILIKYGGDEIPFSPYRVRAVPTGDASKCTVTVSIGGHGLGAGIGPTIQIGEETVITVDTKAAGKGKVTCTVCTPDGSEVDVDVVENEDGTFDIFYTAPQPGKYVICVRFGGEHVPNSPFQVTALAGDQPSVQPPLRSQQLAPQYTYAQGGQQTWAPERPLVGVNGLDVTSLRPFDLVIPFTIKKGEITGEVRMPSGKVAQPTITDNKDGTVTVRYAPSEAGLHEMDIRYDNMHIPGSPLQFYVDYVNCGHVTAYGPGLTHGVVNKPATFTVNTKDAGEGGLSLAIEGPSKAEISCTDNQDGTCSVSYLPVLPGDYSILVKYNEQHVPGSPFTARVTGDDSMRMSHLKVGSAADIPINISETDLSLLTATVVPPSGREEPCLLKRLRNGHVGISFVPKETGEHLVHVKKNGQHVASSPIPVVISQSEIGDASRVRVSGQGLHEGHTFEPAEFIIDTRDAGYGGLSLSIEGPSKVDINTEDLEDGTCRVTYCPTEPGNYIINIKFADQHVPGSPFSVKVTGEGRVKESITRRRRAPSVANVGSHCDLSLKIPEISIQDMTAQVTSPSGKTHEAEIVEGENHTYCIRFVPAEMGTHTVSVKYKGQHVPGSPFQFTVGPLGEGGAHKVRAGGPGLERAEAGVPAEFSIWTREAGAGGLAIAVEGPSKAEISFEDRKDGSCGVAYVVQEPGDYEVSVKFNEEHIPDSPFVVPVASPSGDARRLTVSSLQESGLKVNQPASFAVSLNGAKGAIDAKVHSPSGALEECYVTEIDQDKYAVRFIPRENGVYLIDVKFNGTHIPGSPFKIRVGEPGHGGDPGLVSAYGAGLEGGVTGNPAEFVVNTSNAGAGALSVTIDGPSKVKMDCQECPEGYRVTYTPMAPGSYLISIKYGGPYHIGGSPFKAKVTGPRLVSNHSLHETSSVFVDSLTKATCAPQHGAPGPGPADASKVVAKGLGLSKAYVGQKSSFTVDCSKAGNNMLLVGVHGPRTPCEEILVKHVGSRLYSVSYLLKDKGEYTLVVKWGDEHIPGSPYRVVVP
NDUFA7, O95182, UniProt O95182, whole entry: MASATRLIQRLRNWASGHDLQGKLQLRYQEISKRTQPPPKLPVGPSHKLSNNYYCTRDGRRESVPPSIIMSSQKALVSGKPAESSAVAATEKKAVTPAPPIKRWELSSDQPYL
CASC3, O15234, UniProt O15234, whole entry: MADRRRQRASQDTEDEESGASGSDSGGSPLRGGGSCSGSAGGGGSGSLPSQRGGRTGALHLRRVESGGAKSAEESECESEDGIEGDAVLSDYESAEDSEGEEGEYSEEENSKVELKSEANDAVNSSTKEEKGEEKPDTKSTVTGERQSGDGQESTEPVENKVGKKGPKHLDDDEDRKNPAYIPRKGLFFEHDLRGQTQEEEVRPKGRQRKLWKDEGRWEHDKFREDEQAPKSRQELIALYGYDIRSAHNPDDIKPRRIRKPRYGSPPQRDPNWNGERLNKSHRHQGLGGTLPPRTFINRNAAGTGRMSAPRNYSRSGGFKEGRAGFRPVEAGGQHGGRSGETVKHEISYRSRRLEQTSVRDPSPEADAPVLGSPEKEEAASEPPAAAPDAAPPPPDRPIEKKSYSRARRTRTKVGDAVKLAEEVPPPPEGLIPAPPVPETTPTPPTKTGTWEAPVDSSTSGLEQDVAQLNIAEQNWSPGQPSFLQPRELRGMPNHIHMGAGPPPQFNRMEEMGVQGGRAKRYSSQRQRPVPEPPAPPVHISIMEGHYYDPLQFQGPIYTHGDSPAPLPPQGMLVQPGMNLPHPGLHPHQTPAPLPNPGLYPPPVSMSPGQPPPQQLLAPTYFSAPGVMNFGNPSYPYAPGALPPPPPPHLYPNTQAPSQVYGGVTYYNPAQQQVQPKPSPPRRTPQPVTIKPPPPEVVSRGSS
ECPAS, Q5VYK3, UniProt Q5VYK3, whole entry: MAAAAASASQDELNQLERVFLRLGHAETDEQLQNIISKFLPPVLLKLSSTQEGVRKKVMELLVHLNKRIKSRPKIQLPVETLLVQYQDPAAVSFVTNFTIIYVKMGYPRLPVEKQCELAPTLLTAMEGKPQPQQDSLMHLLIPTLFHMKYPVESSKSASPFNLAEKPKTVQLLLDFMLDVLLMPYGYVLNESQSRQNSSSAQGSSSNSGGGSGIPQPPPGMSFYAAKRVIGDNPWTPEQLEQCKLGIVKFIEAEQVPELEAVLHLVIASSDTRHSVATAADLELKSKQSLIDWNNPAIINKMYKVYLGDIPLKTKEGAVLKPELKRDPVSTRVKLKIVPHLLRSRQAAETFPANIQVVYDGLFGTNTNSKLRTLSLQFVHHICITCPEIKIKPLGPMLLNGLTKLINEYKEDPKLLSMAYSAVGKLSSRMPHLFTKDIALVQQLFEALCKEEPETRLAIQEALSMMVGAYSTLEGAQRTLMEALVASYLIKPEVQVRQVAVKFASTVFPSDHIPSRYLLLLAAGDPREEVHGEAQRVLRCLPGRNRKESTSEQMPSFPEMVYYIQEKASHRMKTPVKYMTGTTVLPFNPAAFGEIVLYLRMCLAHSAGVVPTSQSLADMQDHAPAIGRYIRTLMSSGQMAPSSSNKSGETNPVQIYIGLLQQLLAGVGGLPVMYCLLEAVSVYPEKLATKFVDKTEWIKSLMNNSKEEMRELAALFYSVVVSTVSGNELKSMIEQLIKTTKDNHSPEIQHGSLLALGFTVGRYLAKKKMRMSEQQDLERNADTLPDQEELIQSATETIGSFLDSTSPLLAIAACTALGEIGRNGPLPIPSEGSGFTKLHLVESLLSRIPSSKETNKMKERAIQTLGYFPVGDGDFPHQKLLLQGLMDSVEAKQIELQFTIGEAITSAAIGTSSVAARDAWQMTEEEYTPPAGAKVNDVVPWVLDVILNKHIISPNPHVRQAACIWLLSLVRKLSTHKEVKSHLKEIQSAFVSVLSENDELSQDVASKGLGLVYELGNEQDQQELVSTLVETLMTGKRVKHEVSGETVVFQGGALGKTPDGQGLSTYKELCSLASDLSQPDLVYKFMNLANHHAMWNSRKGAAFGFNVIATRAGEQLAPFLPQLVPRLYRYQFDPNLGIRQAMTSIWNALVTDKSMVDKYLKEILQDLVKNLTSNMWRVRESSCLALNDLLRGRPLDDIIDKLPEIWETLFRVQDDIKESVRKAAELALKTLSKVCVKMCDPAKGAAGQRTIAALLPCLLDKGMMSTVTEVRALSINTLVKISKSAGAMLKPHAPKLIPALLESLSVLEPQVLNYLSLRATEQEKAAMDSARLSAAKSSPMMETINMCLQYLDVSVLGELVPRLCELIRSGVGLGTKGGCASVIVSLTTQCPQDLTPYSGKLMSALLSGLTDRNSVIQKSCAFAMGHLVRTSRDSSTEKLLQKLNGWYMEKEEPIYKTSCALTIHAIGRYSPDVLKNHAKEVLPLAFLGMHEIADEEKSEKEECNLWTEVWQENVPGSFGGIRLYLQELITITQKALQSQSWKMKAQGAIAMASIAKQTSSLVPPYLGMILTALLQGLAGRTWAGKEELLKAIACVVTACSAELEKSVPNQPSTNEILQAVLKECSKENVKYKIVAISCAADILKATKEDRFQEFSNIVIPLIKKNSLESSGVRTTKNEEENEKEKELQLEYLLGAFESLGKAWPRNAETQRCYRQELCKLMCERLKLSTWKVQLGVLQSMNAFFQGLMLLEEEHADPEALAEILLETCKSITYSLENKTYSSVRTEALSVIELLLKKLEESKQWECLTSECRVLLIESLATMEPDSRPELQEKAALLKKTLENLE
NDUFA13, Q9P0J0, UniProt Q9P0J0, whole entry: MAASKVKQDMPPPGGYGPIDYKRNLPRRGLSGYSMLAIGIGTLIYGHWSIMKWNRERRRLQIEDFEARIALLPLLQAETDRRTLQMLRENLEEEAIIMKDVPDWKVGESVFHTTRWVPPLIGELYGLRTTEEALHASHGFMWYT
UBE2I, P63279, UniProt P63279, whole entry: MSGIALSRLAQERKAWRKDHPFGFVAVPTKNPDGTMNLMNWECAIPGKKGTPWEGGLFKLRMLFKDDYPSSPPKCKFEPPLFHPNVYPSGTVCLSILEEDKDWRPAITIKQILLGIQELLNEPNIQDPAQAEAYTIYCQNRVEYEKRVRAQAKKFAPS

Columns and labels:
Assay in all cases: PRISMA enrichment of interactor (LFQ) in peptide spot vs all other peptide spots (log2 fold change); higher = stronger / more specific binding of the interactor to the peptide
[1] = molecular target: AATF, Q9NY61
Description: (§1)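 PRISMA: 15-aa overlapping tiles (offset 8 aa) of 60 microproteins, plus SOS1/GLUT1 control peptides, were spot-synthesized on cellulose membranes in triplicate. Membranes were incubated with benzonase-treated HEK293T lysate, and bound proteins were identified by LC-MS/MS with LFQ. Enrichment is the log2 fold change of each protein in one spot versus all other spots. Only interactors passing the significance cutoff are listed.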

[2] = molecular target: ATP5PB, P24539
Description: as §1

[3] = molecular target: BCOR, Q6W2J9
Description: as §1

[4] = molecular target: C18orf25, Q96B23
Description: as §1

[5] = molecular target: CENPF, P49454
Description: as §1

[6] = molecular target: CKAP2, Q8WWK9
Description: as §1

[7] = molecular target: DDX27, Q96GQ7
Description: as §1

[8] = molecular target: DIS3, Q9Y2L1
Description: as §1

[9] = molecular target: EIF6, P56537
Description: as §1

[10] = molecular target: FAM83D, Q9H4H8
Description: as §1

[11] = molecular target: FGG, P02679
Description: as §1

[12] = molecular target: FLNA, P21333
Description: as §1

[13] = molecular target: HK1, P19367
Description: as §1

[14] = molecular target: HP, P00738
Description: as §1

[15] = molecular target: LARS2, Q15031
Description: as §1

[16] = molecular target: MOV10, Q9HCE1
Description: as §1

[17] = molecular target: NDUFA7, O95182
Description: as §1

[18] = molecular target: PFKL, P17858
Description: as §1

[19] = molecular target: PRPF6, O94906
Description: as §1

[20] = molecular target: SARDH, Q9UL12
Description: as §1

[21] = molecular target: SEMG2, Q02383
Description: as §1

[22] = molecular target: SLC25A24, Q6NUK1
Description: as §1

[23] = molecular target: SMU1, Q2TAY7
Description: as §1

[24] = molecular target: SNRNP40, Q96DI7
Description: as §1

[25] = molecular target: TAGLN2, P37802
Description: as §1

[26] = molecular target: TM9SF3, Q9HD45
Description: as §1

[27] = molecular target: TMEM256-PLSCR3
Description: as §1

[28] = molecular target: UTP18, Q9Y5J1
Description: as §1

[29] = molecular target: UTP23, Q9BRU9
Description: as §1

[30] = molecular target: XPO7, Q9UIA9
Description: as §1

[31] = molecular target: ZNF24, P17028
Description: as §1

[32] = molecular target: ZNF444, Q8N0Y2
Description: as §1

[33] = molecular target: ZNF771, Q7L3S4
Description: as §1

[34] = molecular target: ACTB, P60709
Description: as §1

[35] = molecular target: ALYREF, Q86V81
Description: as §1

[36] = molecular target: CASC3, O15234
Description: as §1

[37] = molecular target: ECPAS, Q5VYK3
Description: as §1

[38] = molecular target: MAPRE1, Q15691
Description: as §1

[39] = molecular target: NDUFA13, Q9P0J0
Description: as §1

[40] = molecular target: SHROOM3, Q8TF72
Description: as §1

[41] = molecular target: SUPT4H1, P63272
Description: as §1

[42] = molecular target: TOP2A, P11388
Description: as §1

[43] = molecular target: TSR1, Q2NL82
Description: as §1

[44] = molecular target: UBE2I, P63279
Description: as §1

SPRGIHHCRPLGGTN
PRISMA enrichment of interactor (log2) [1]: 4.94
PRISMA enrichment of interactor (log2) [2]: 4.79
PRISMA enrichment of interactor (log2) [3]: 7.31
PRISMA enrichment of interactor (log2) [4]: 5.18
PRISMA enrichment of interactor (log2) [5]: 4.19
PRISMA enrichment of interactor (log2) [6]: 6.24
PRISMA enrichment of interactor (log2) [7]: 6.52
PRISMA enrichment of interactor (log2) [8]: 4.71
PRISMA enrichment of interactor (log2) [9]: 4.6
PRISMA enrichment of interactor (log2) [10]: 6.84
PRISMA enrichment of interactor (log2) [11]: 4.22
PRISMA enrichment of interactor (log2) [12]: 4.77
PRISMA enrichment of interactor (log2) [13]: 5.13
PRISMA enrichment of interactor (log2) [14]: 4.54
PRISMA enrichment of interactor (log2) [15]: 5.24
PRISMA enrichment of interactor (log2) [16]: 10.3
PRISMA enrichment of interactor (log2) [17]: 3.81
PRISMA enrichment of interactor (log2) [18]: 4.92
PRISMA enrichment of interactor (log2) [19]: 4.66
PRISMA enrichment of interactor (log2) [20]: 4.29
PRISMA enrichment of interactor (log2) [21]: 4.43
PRISMA enrichment of interactor (log2) [22]: 9.35
PRISMA enrichment of interactor (log2) [23]: 6.94
PRISMA enrichment of interactor (log2) [24]: 5.35
PRISMA enrichment of interactor (log2) [25]: 5.08
PRISMA enrichment of interactor (log2) [26]: 4.73
PRISMA enrichment of interactor (log2) [27]: 7.17
PRISMA enrichment of interactor (log2) [28]: 5.6
PRISMA enrichment of interactor (log2) [29]: 6.8
PRISMA enrichment of interactor (log2) [30]: 5.26
PRISMA enrichment of interactor (log2) [31]: 6.64
PRISMA enrichment of interactor (log2) [32]: 4.34
PRISMA enrichment of interactor (log2) [33]: 7.41

CRPLGGTNLEMGLVE
PRISMA enrichment of interactor (log2) [1]: 4.49
PRISMA enrichment of interactor (log2) [34]: 5.09
PRISMA enrichment of interactor (log2) [35]: 4.43
PRISMA enrichment of interactor (log2) [36]: 5.74
PRISMA enrichment of interactor (log2) [37]: 5.37
PRISMA enrichment of interactor (log2) [38]: 4.44
PRISMA enrichment of interactor (log2) [39]: 5.05
PRISMA enrichment of interactor (log2) [40]: 9.16
PRISMA enrichment of interactor (log2) [41]: 7.41
PRISMA enrichment of interactor (log2) [42]: 4.66
PRISMA enrichment of interactor (log2) [43]: 7.8
PRISMA enrichment of interactor (log2) [44]: 3.95
